Assay [1] concerns the target GFP-PIRE (Arabidopsis thaliana). Kind of assay: co-IP; Arabidopsis mesophyll protoplasts of the line 35S::PBL13-3xFLAG/pbl13-2 #8-3 transfected with GFP fusions; anti-GFP (GFP-Trap) immunoprecipitation; IP buffer 50 mM Tris-HCl pH 7.5, 150 mM NaCl, 10% glycerol, 2% IGEPAL; 4 °C.
For assay [2], the target named is 3xHA-PIRE (Arabidopsis thaliana). The experiment in a line: co-IP; transient co-expression in N. benthamiana leaves; GFP-Trap immunoprecipitation of YFP fusions, 4 °C, 2 h; IP buffer 150 mM Tris-HCl pH 7.5, 150 mM NaCl, 10% glycerol, 2% IGEPAL.
In assay [3] the target is PIRE (PBL13 interacting RING domain E3 ligase) on the protein microarray (Arabidopsis thaliana). Kind of assay: peptide or protein array; PATH protein microarray with ~5000 Arabidopsis proteins incubated with V5-tagged PBL13; detected with CY5-tagged V5 antibody; probed once; both purified.
The target in assay [4] is pTBS1-PIRE C244S/C247S (Arabidopsis thaliana). The experiment in a line: two-hybrid; LexA system: bait in pTBS1, prey in pJG4-5, yeast EGY48; growth on -UTHL with galactose/raffinose.
Assay [5] addresses PIRE fused to YC (Arabidopsis thaliana). Kind of assay: split reporter; BiFC with citrine halves (PBL13-YN, PIRE-YC) in N. benthamiana leaves; 10 μM MG132 infiltrated 24 h before confocal imaging.
In assay [6] the target is GST-PIRE (Arabidopsis thaliana). Kind of assay: pull-down; purified recombinant proteins: 1 µg GST-PIRE with 3 μg MBP fusion, 4 °C, 2 h, 30 mM HEPES, 180 mM NaCl, 0.2% triton X100; the results call it a GST pull-down, the methods name amylose beads; both purified.

These are yes or no findings as the source states them, for the method shown. Binding can be weak; no strength is given. For part of these data: Tags and fused reporters may be left off the sequences shown. For part of these data: In cells and extracts the contact can be indirect.

B1: PBL13-3xFLAG (protein, UniProt F4JZW1 1-494)
chain: MVLCFQDPDNIYSPKKTKKDDGERVITKQKSFLGLSILDISNPSSTTLSEDLSISLAGSDLHVFTQAELRVITQSFSSSNFLGEGGFGPVHKGFIDDKLRPGLKAQPVAVKLLDLDGLQGHREFMTEVMCLGKLKHPNLVKLIGYCCEEAHRLLVYEFMPRGSLESQLFRRCSLPLPWTTRLNIAYEAAKGLQFLHEAEKPIIYRDFKASNILLDSDYTAKLSDFGLAKDGPQGDDTHVSTRVMGTQGYAAPEYIMTGHLTAKSDVYSFGVVLLELLTGRKSVDIARSSRKETLVEWARPMLNDARKLGRIMDPRLEDQYSETGARKAATLAYQCLRYRPKTRPDISTVVSVLQDIKDYKDDIPIGIFTYTVPTKPRREVKETSLQNFDKPRRETKVTSLQNFDKTRREVKDTSLQNFDKTRREVKETSLQNFDKTRREVKETSLQNFDKPRNVSTTDNHQKFRSPAHTARNHRITLRNGYNSPMRNEAGGERY
As to B1, the binding result in assay [1] is recorded as “binds”.

B2: PBL13-3xHA (protein, UniProt F4JZW1 1-494)
chain: MVLCFQDPDNIYSPKKTKKDDGERVITKQKSFLGLSILDISNPSSTTLSEDLSISLAGSDLHVFTQAELRVITQSFSSSNFLGEGGFGPVHKGFIDDKLRPGLKAQPVAVKLLDLDGLQGHREFMTEVMCLGKLKHPNLVKLIGYCCEEAHRLLVYEFMPRGSLESQLFRRCSLPLPWTTRLNIAYEAAKGLQFLHEAEKPIIYRDFKASNILLDSDYTAKLSDFGLAKDGPQGDDTHVSTRVMGTQGYAAPEYIMTGHLTAKSDVYSFGVVLLELLTGRKSVDIARSSRKETLVEWARPMLNDARKLGRIMDPRLEDQYSETGARKAATLAYQCLRYRPKTRPDISTVVSVLQDIKDYKDDIPIGIFTYTVPTKPRREVKETSLQNFDKPRRETKVTSLQNFDKTRREVKDTSLQNFDKTRREVKETSLQNFDKTRREVKETSLQNFDKPRNVSTTDNHQKFRSPAHTARNHRITLRNGYNSPMRNEAGGERY
Consider B2, for which the binding entry in assay [2] was “binds”.

B3: V5-tagged PBL13 (protein, UniProt F4JZW1 1-494)
chain: MVLCFQDPDNIYSPKKTKKDDGERVITKQKSFLGLSILDISNPSSTTLSEDLSISLAGSDLHVFTQAELRVITQSFSSSNFLGEGGFGPVHKGFIDDKLRPGLKAQPVAVKLLDLDGLQGHREFMTEVMCLGKLKHPNLVKLIGYCCEEAHRLLVYEFMPRGSLESQLFRRCSLPLPWTTRLNIAYEAAKGLQFLHEAEKPIIYRDFKASNILLDSDYTAKLSDFGLAKDGPQGDDTHVSTRVMGTQGYAAPEYIMTGHLTAKSDVYSFGVVLLELLTGRKSVDIARSSRKETLVEWARPMLNDARKLGRIMDPRLEDQYSETGARKAATLAYQCLRYRPKTRPDISTVVSVLQDIKDYKDDIPIGIFTYTVPTKPRREVKETSLQNFDKPRRETKVTSLQNFDKTRREVKDTSLQNFDKTRREVKETSLQNFDKTRREVKETSLQNFDKPRNVSTTDNHQKFRSPAHTARNHRITLRNGYNSPMRNEAGGERY
With B3, the binding result in assay [3] is reported as “binds”.

B4: PBL13 in pJG4-5 (prey) (protein, UniProt F4JZW1 1-494)
chain: MVLCFQDPDNIYSPKKTKKDDGERVITKQKSFLGLSILDISNPSSTTLSEDLSISLAGSDLHVFTQAELRVITQSFSSSNFLGEGGFGPVHKGFIDDKLRPGLKAQPVAVKLLDLDGLQGHREFMTEVMCLGKLKHPNLVKLIGYCCEEAHRLLVYEFMPRGSLESQLFRRCSLPLPWTTRLNIAYEAAKGLQFLHEAEKPIIYRDFKASNILLDSDYTAKLSDFGLAKDGPQGDDTHVSTRVMGTQGYAAPEYIMTGHLTAKSDVYSFGVVLLELLTGRKSVDIARSSRKETLVEWARPMLNDARKLGRIMDPRLEDQYSETGARKAATLAYQCLRYRPKTRPDISTVVSVLQDIKDYKDDIPIGIFTYTVPTKPRREVKETSLQNFDKPRRETKVTSLQNFDKTRREVKDTSLQNFDKTRREVKETSLQNFDKTRREVKETSLQNFDKPRNVSTTDNHQKFRSPAHTARNHRITLRNGYNSPMRNEAGGERY
As for B4, in assay [4], the binding entry is reported as “binds”.

B5: PBL13 fused to YN (protein, UniProt F4JZW1 1-494)
chain: MVLCFQDPDNIYSPKKTKKDDGERVITKQKSFLGLSILDISNPSSTTLSEDLSISLAGSDLHVFTQAELRVITQSFSSSNFLGEGGFGPVHKGFIDDKLRPGLKAQPVAVKLLDLDGLQGHREFMTEVMCLGKLKHPNLVKLIGYCCEEAHRLLVYEFMPRGSLESQLFRRCSLPLPWTTRLNIAYEAAKGLQFLHEAEKPIIYRDFKASNILLDSDYTAKLSDFGLAKDGPQGDDTHVSTRVMGTQGYAAPEYIMTGHLTAKSDVYSFGVVLLELLTGRKSVDIARSSRKETLVEWARPMLNDARKLGRIMDPRLEDQYSETGARKAATLAYQCLRYRPKTRPDISTVVSVLQDIKDYKDDIPIGIFTYTVPTKPRREVKETSLQNFDKPRRETKVTSLQNFDKTRREVKDTSLQNFDKTRREVKETSLQNFDKTRREVKETSLQNFDKPRNVSTTDNHQKFRSPAHTARNHRITLRNGYNSPMRNEAGGERY
B5: the binding entry in assay [5] was “binds”.

B6: MBP-PBL13 (protein, UniProt F4JZW1 1-494)
chain: MVLCFQDPDNIYSPKKTKKDDGERVITKQKSFLGLSILDISNPSSTTLSEDLSISLAGSDLHVFTQAELRVITQSFSSSNFLGEGGFGPVHKGFIDDKLRPGLKAQPVAVKLLDLDGLQGHREFMTEVMCLGKLKHPNLVKLIGYCCEEAHRLLVYEFMPRGSLESQLFRRCSLPLPWTTRLNIAYEAAKGLQFLHEAEKPIIYRDFKASNILLDSDYTAKLSDFGLAKDGPQGDDTHVSTRVMGTQGYAAPEYIMTGHLTAKSDVYSFGVVLLELLTGRKSVDIARSSRKETLVEWARPMLNDARKLGRIMDPRLEDQYSETGARKAATLAYQCLRYRPKTRPDISTVVSVLQDIKDYKDDIPIGIFTYTVPTKPRREVKETSLQNFDKPRRETKVTSLQNFDKTRREVKDTSLQNFDKTRREVKETSLQNFDKTRREVKETSLQNFDKPRNVSTTDNHQKFRSPAHTARNHRITLRNGYNSPMRNEAGGERY
With B6, the binding entry in assay [6] is on record as “binds”.

The values are drawn from article PMC7160206.
